Results are given in words; binding and its absence hold for the method and conditions named. In cells and extracts the contact can be indirect. These calls come from enrichment with a bait or labelling near it, and not all partners need be listed. For part of these data: No binding means not detected with the bait. Sequences can lack the tags named with a protein.
T1: FLAG-FECH E343K variant (human ferrochelatase) (human) (UniProt P22830)
T1 sequence: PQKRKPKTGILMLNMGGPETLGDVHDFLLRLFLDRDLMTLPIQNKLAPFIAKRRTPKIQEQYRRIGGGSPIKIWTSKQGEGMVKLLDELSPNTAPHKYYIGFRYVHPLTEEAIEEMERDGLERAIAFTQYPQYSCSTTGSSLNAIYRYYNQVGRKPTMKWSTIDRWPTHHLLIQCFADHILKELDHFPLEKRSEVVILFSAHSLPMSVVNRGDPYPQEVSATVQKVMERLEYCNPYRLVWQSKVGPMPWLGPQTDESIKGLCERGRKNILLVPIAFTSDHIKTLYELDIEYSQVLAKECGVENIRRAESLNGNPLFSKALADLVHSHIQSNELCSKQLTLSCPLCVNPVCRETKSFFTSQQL

T2: FLAG-PPOX (human protoporphyrinogen oxidase, carboxy terminal FLAG) (human) (UniProt P50336)
T2 sequence: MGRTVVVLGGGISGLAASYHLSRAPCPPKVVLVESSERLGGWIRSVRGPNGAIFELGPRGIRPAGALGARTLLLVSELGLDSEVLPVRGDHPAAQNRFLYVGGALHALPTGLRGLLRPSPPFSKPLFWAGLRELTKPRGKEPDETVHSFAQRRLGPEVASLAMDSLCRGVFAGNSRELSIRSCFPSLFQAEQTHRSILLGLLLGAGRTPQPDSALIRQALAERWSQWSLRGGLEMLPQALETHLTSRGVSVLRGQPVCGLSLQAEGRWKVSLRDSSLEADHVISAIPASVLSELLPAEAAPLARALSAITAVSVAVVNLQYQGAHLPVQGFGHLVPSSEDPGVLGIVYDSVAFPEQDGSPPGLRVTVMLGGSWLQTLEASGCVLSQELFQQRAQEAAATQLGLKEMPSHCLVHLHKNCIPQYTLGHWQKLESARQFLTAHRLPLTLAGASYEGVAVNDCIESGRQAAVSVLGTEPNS

T3: FLAG-FECH (human ferrochelatase, wild type) (human) (UniProt P22830)
T3 sequence: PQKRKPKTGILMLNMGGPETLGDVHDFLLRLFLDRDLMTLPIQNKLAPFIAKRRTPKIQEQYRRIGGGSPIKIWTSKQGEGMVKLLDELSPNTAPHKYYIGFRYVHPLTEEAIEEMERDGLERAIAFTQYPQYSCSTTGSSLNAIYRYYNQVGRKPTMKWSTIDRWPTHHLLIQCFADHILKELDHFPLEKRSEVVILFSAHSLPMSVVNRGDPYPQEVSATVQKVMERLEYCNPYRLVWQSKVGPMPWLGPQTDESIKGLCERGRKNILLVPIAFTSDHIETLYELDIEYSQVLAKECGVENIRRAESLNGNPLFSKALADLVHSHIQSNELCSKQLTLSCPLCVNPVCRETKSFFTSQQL

T4: FLAG-CPOX (human coproporphyrinogen oxidase, carboxy terminal FLAG) (human) (UniProt P36551)
T4 sequence: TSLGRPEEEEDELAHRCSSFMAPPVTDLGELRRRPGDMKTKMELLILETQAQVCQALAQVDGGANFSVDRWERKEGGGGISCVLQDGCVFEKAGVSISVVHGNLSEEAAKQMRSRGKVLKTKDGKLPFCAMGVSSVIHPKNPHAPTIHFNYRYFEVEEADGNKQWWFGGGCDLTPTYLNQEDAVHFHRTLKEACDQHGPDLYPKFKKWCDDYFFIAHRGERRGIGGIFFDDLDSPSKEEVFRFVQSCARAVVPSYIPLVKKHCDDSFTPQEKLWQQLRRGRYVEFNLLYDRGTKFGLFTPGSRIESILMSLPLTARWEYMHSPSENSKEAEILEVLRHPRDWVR

T5: FLAG-FECH M76H variant (human ferrochelatase) (human) (UniProt P22830)
T5 sequence: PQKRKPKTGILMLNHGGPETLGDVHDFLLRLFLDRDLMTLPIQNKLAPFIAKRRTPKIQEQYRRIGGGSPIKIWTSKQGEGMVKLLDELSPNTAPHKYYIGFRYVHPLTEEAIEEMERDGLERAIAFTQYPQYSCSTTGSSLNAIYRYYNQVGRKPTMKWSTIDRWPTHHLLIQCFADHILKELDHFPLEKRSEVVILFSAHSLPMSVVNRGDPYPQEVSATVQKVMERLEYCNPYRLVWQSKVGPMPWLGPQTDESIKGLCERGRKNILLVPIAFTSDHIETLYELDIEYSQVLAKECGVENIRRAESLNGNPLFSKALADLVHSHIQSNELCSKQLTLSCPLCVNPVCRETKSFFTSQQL


Columns and labels:
Experiment in all cases: affinity purification with mass spectrometry; FLAG-tagged human bait stably expressed in MEL cells induced 72 h with 1.5% DMSO; isolated mitochondria lysed in 50 mM Tris-HCl pH 7.5, 1 mM EDTA, 150 mM NaCl, 1% Nonidet P-40; anti-FLAG agarose overnight at 4°C, washes with 0.1% Nonidet P-40, elution with FLAG peptide, MudPIT MS; empty vector as control
[1] = biological target: T1, FLAG-FECH E343K variant (human ferrochelatase) (human)
[2] = biological target: T2, FLAG-PPOX (human protoporphyrinogen oxidase, carboxy terminal FLAG) (human)
[3] = biological target: T3, FLAG-FECH (human ferrochelatase, wild type) (human)
[4] = biological target: T4, FLAG-CPOX (human coproporphyrinogen oxidase, carboxy terminal FLAG) (human)
[5] = biological target: T5, FLAG-FECH M76H variant (human ferrochelatase) (human)

Row | Binder | binding [1] | binding [2] | binding [3] | binding [4] | binding [5]
1 | mouse abcb10 (protein, UniProt Q9JI39 83-715) AGPRAAHPLFARLQGAAATGVRDLGNDSQRRPAATGRSEVWKLLGLVRPERGRLSAAVGFLAVSSVITMSAPFFLGRIIDVIYTNPSEGYGDSLTRLCAVLTCVFLCGAAANGIRVYLMQSSGQSIVNRLRTSLFSSILRQEVAFFDKTRTGELINRLSSDTALLGRSVTENLSDGLRAGAQASVGVGMMFFVSPSLATFVLSVVPPISVLAVIYGRYLRKLSKATQDSLAEATQLAEERIGNIRTIRAFGKEMTEVEKYTGRVDQLLQLAQKEALARAGFFGAAGLSGNLIVLSVLYKGGLLMGSAHMTVGELSSFLMYAFWVGLSIGGLSSFYSELMKGLGAGGRLWELLERQPRLPFNEGMVLDEKTFQGALEFRNVHFTYPARPEVSVFQDFSLSIPSGSVTALVGPSGSGKSTVVSLLLRLYDPNSGTVSLDGHDIRQLNPVWLRSKIGTVSQEPVLFSCSVAENIAYGADNLSSVTAQQVERAAEVANAAEFIRSFPQGFDTVVGEKGILLSGGQKQRIAIARALLKNPKILLLDEATSALDAENEHLVQEALDRLMEGRTVLIIAHRLSTIKNANFVAVLDHGKICEHGTHEELLLKPNGLYRKLMNKQSFLSYNGAEQFLEPARA | binds | binds | binds | no binding | binds
2 | mouse 5-aminolevulinate synthase 2 (erythroid) (enzyme, UniProt P08680 50-587) QIHLKATKAGGDSPSWAKSHCPFMLSELQDRKSKIVQRAAPEVQEDVKTFKTDLLSTMDSTTRSHSFPSFQEPEQTEGAVPHLIQNNMTGSQAFGYDQFFRDKIMEKKQDHTYRVFKTVNRWANAYPFAQHFSEASMASKDVSVWCSNDYLGISRHPRVLQAIEETLKNHGAGAGGTRNISGTSKFHVELEQELAELHQKDSALLFSSCFVANDSTLFTLAKLLPGCEIYSDAGNHASMIQGIRNSGAAKFVFRHNDPGHLKKLLEKSDPKTPKIVAFETVHSMDGAICPLEELCDVAHQYGALTFVDEVHAVGLYGARGAGIGERDGIMHKLDIISGTLGKAFGCVGGYIASTRDLVDMVRSYAAGFIFTTSLPPMVLSGALESVRLLKGEEGQALRRAHQRNVKHMRQLLMDRGFPVIPCPSHIIPIRVGNAALNSKICDLLLSKHSIYVQAINYPTVPRGEELLRLAPSPHHSPQMMENFVEKLLLAWTEVGLPLQDVSVAACNFCHRPVHFELMSEWERSYFGNMGPQYVTTYA | binds | binds | binds | no binding | binds

The remaining lines, values ahead:

Row | binding [1] | binding [2] | binding [3] | binding [4] | binding [5] | Binder
3 | binds | binds | binds | no binding | binds | mouse ferrochelatase (enzyme, UniProt P22315 54-422) TTKPQAQPERRKPKTGILMLNMGGPETLGEVQDFLQRLFLDRDLMTLPIQNKLAPFIAKRRTPKIQEQYRRIGGGSPIKMWTSKQGEGMVKLLDELSPATAPHKYYIGFRYVHPLTEEAIEEMERDGLERAIAFTQYPQYSCSTTGSSLNAIYRYYNEVGQKPTMKWSTIDRWPTHPLLIQCFADHILKELNHFPEEKRSEVVILFSAHSLPMSVVNRGDPYPQEVGATVHKVMEKLGYPNPYRLVWQSKVGPVPWLGPQTDEAIKGLCERGRKNILLVPIAFTSDHIETLYELDIEYSQVLAQKCGAENIRRAESLNGNPLFSKALADLVHSHIQSNKLCSTQLSLNCPLCVNPVCRKTKSFFTSQQL
4 | binds | binds | binds | no binding | binds | mouse succinyl-CoA synthetase beta subunit (sucla2) (enzyme, UniProt Q9Z2I9 54-463) SLHEYLSMELLQEAGVSVPKGFVAKSSDEAYAIAKKLGSKDVVIKAQVLAGGRGKGTFTSGLKGGVKIVFSPEEAKAVSSQMIGQKLITKQTGEKGRICNQVLVCERKYPRREYYFAITMERSFQGPVLIGSAQGGVNIEDVAAENPEAIVKEPIDIVEGIKKEQAVTLAQKMGFPSNIVDSAAENMIKLYNLFLKYDATMVEINPMVEDSDGKVLCMDAKINFDSNSAYRQKKIFDLQDWSQEDERDKEAANADINYIGLDGSIGCLVNGAGLAMATMDIIKLHGGTPANFLDVGGGATVQQVTEAFKLITSDKKVQAILVNIFGGIMRCDVIAQGIVMAVKDLEIRIPVVVRLQGTRVDDAKALIADSGLKILACDDLDEAAKMVVKLSEIVTLAKEAHVDVKFQLPI
5 | no binding |  | no binding | binds | no binding | mouse coproporphyrinogen oxidase (enzyme, UniProt P36552 99-443) SPSPGRREEDGDELARRCSTFMSSPVTELRELRRRPEDMKTKMELMIMETQAQVCRALAQVDGVADFTVDRWERKEGGGGITCVLQDGRVFEKAGVSISVVHGNLSEEAANQMRGRGKTLKTKDSKLPFTAMGVSSVIHPKNPYAPTMHFNYRYFEVEEADGNTHWWFGGGCDLTPTYLNQEDAVHFHRTLKEACDQHGPDIYPKFKKWCDDYFFIVHRGERRGIGGIFFDDLDSPSKEEAFRFVKTCAEAVVPSYVPIVKKHCDDSYTPRDKLWQQLRRGRYVEFNLLYDRGTKFGLFTPGSRIESILMSLPLTARWEYMHSPPENSKEAEILEVLRHPKDWVH

— PMC4545792
